# Experimental data taken from the supplement of paper PMC8728848.
# The list shows a part of the results.
# Tests used:
# Test in all cases: glycan array binding signal (z-score within array); higher = stronger binding
# Details in all cases: glycan notation: IUPAC condensed, linker removed
# [1] = target: Gal(b1-4)GlcNAc(b1-3)Gal(b1-4)GlcNAc(b1-2)[Gal(b1-4)GlcNAc(b1-3)Gal(b1-4)GlcNAc(b1-6)]Man(a1-6)[Gal(b1-4)GlcNAc(b1-3)Gal(b1-4)GlcNAc(b1-2)Man(a1-3)]Man(b1-4)GlcNAc(b1-4)[Fuc(a1-6)]GlcNAc
# Outline: (§1)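 Glycan array binding is given as a within-array Z-score, which can be read as non-binding when negative. The arrays, 3228 of them, came from the Consortium for Functional Glycomics database and were retained only where the protein sequence was available. Z-scores were averaged across arrays of the same protein sequence at different concentrations or buffers and across linkers.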
# [2] = target: Gal(b1-4)GlcNAc(b1-3)Gal(b1-4)GlcNAc(b1-3)Gal(b1-4)GlcNAc
# Outline: as §1
# [3] = target: Gal(b1-4)GlcNAc(b1-3)Gal(b1-4)GlcNAc(b1-3)Gal(b1-4)GlcNAc(b1-2)Man(a1-3)[Gal(b1-4)GlcNAc(b1-3)Gal(b1-4)GlcNAc(b1-3)Gal(b1-4)GlcNAc(b1-2)Man(a1-6)]Man(b1-4)GlcNAc(b1-4)GlcNAc
# Outline: as §1
# [4] = target: Gal(b1-4)GlcNAc(b1-3)Gal(b1-4)GlcNAc(b1-3)Gal(b1-4)GlcNAc(b1-2)Man(a1-3)[Gal(b1-4)GlcNAc(b1-3)Gal(b1-4)GlcNAc(b1-3)Gal(b1-4)GlcNAc(b1-2)Man(a1-6)]Man(b1-4)GlcNAc(b1-4)[Fuc(a1-6)]GlcNAc
# Outline: as §1
# [5] = target: Gal(b1-4)GlcNAc(b1-3)Gal(b1-4)GlcNAc(b1-3)Gal(b1-4)GlcNAc(b1-2)[Gal(b1-4)GlcNAc(b1-3)Gal(b1-4)GlcNAc(b1-3)Gal(b1-4)GlcNAc(b1-6)]Man(a1-6)[Gal(b1-4)GlcNAc(b1-3)Gal(b1-4)GlcNAc(b1-3)Gal(b1-4)GlcNAc(b1-2)Man(a1-3)]Man(b1-4)GlcNAc(b1-4)[Fuc(a1-6)]GlcNAc
# Outline: as §1
# [6] = target: Gal(b1-4)GlcNAc(b1-3)Gal(b1-4)GlcNAc(b1-3)Gal(b1-4)GlcNAc(b1-3)Gal(b1-4)GlcNAc(b1-2)Man(a1-3)[Gal(b1-4)GlcNAc(b1-3)Gal(b1-4)GlcNAc(b1-3)Gal(b1-4)GlcNAc(b1-3)Gal(b1-4)GlcNAc(b1-2)Man(a1-6)]Man(b1-4)GlcNAc(b1-4)GlcNAc
# Outline: as §1
# [7] = target: Gal(b1-4)GlcNAc(b1-3)Gal(b1-4)GlcNAc(b1-3)Gal(b1-4)GlcNAc(b1-3)Gal(b1-4)GlcNAc(b1-2)Man(a1-3)[Gal(b1-4)GlcNAc(b1-3)Gal(b1-4)GlcNAc(b1-3)Gal(b1-4)GlcNAc(b1-3)Gal(b1-4)GlcNAc(b1-2)Man(a1-6)]Man(b1-4)GlcNAc(b1-4)[Fuc(a1-6)]GlcNAc
# Outline: as §1
# [8] = target: Gal(b1-4)GlcNAc(b1-3)Gal(b1-4)GlcNAc(b1-3)Gal(b1-4)GlcNAc(b1-3)Gal(b1-4)GlcNAc(b1-2)[Gal(b1-4)GlcNAc(b1-3)Gal(b1-4)GlcNAc(b1-3)Gal(b1-4)GlcNAc(b1-3)Gal(b1-4)GlcNAc(b1-6)]Man(a1-6)[Gal(b1-4)GlcNAc(b1-3)Gal(b1-4)GlcNAc(b1-3)Gal(b1-4)GlcNAc(b1-3)Gal(b1-4)GlcNAc(b1-2)Man(a1-3)]Man(b1-4)GlcNAc(b1-4)[Fuc(a1-6)]GlcNAc
# Outline: as §1
# [9] = target: Gal(b1-4)GlcNAc(b1-3)Gal(b1-4)GlcNAc(b1-3)Gal(b1-4)GlcNAc(b1-3)Gal(b1-4)GlcNAc(b1-3)Gal(b1-4)GlcNAc(b1-2)Man(a1-3)[Gal(b1-4)GlcNAc(b1-3)Gal(b1-4)GlcNAc(b1-3)Gal(b1-4)GlcNAc(b1-3)Gal(b1-4)GlcNAc(b1-3)Gal(b1-4)GlcNAc(b1-2)Man(a1-6)]Man(b1-4)GlcNAc(b1-4)GlcNAc
# Outline: as §1
# [10] = target: Gal(b1-4)GlcNAc(b1-3)Gal(b1-4)GlcNAc(b1-3)Gal(b1-4)GlcNAc(b1-3)Gal(b1-4)GlcNAc(b1-3)Gal(b1-4)GlcNAc(b1-2)Man(a1-3)[Gal(b1-4)GlcNAc(b1-3)Gal(b1-4)GlcNAc(b1-3)Gal(b1-4)GlcNAc(b1-3)Gal(b1-4)GlcNAc(b1-3)Gal(b1-4)GlcNAc(b1-2)Man(a1-6)]Man(b1-4)GlcNAc(b1-4)[Fuc(a1-6)]GlcNAc
# Outline: as §1
# [11] = target: Gal(b1-4)GlcNAc(b1-3)Gal(b1-4)GlcNAc(b1-3)Gal(b1-4)GlcNAc(b1-3)Gal(b1-4)GlcNAc(b1-3)Gal(b1-4)GlcNAc(b1-2)[Gal(b1-4)GlcNAc(b1-3)Gal(b1-4)GlcNAc(b1-3)Gal(b1-4)GlcNAc(b1-3)Gal(b1-4)GlcNAc(b1-3)Gal(b1-4)GlcNAc(b1-6)]Man(a1-6)[Gal(b1-4)GlcNAc(b1-3)Gal(b1-4)GlcNAc(b1-3)Gal(b1-4)GlcNAc(b1-3)Gal(b1-4)GlcNAc(b1-3)Gal(b1-4)GlcNAc(b1-2)Man(a1-3)]Man(b1-4)GlcNAc(b1-4)[Fuc(a1-6)]GlcNAc
# Outline: as §1
# [12] = target: Gal(b1-4)GlcNAc(b1-3)Gal(b1-4)GlcNAc(b1-3)Gal(b1-4)GlcNAc(b1-3)Gal(b1-4)GlcNAc(b1-3)Gal(b1-4)GlcNAc(b1-3)Gal(b1-4)GlcNAc(b1-2)Man(a1-3)[Gal(b1-4)GlcNAc(b1-3)Gal(b1-4)GlcNAc(b1-3)Gal(b1-4)GlcNAc(b1-3)Gal(b1-4)GlcNAc(b1-3)Gal(b1-4)GlcNAc(b1-3)Gal(b1-4)GlcNAc(b1-2)Man(a1-6)]Man(b1-4)GlcNAc(b1-4)GlcNAc
# Outline: as §1
# [13] = target: Gal(b1-4)GlcNAc(b1-3)Gal(b1-4)GlcNAc(b1-3)GalNAc
# Outline: as §1
# [14] = target: Gal(b1-4)GlcNAc(b1-3)Gal(b1-4)GlcNAc(b1-3)[Gal(b1-4)GlcNAc(b1-3)Gal(b1-4)GlcNAc(b1-6)]GalNAc
# Outline: as §1
# [15] = target: Gal(b1-4)GlcNAc(b1-3)Gal(b1-4)GlcNAc(b1-6)[Gal(b1-3)]GalNAc
# Outline: as §1
# [16] = target: Gal(b1-4)GlcNAc(b1-3)Gal(b1-4)[Fuc(a1-3)]GlcNAc(b1-3)Gal(b1-4)[Fuc(a1-3)]GlcNAc
# Outline: as §1
# [17] = target: Gal(b1-4)GlcNAc(b1-3)GalNAc
# Outline: as §1
# [18] = target: Gal(b1-4)GlcNAc(b1-3)[Fuc(a1-3)GlcNAc(b1-6)]Gal(b1-4)Glc
# Outline: as §1
# [19] = target: Gal(b1-4)GlcNAc(b1-3)[Gal(b1-4)GlcNAc(b1-6)]Gal(b1-4)GlcNAc
# Outline: as §1
# [20] = target: Gal(b1-4)GlcNAc(b1-3)[GlcNAc(b1-6)]Gal(b1-4)GlcNAc
# Outline: as §1
# [21] = target: Gal(b1-4)GlcNAc(b1-6)Gal(b1-4)GlcNAc
# Outline: as §1
# [22] = target: Gal(b1-4)GlcNAc(b1-6)GalNAc
# Outline: as §1
# [23] = target: Gal(b1-4)GlcNAc(b1-6)[Gal(b1-3)]GalNAc
# Outline: as §1
# [24] = target: Gal(b1-4)GlcNAc(b1-6)[Gal(b1-4)GlcNAc(b1-3)]GalNAc
# Outline: as §1
# [25] = target: Gal(b1-4)GlcNAc6P
# Outline: as §1
# [26] = target: Gal(b1-6)Gal
# Outline: as §1
# [27] = target: Gal3S(b1-3)GalNAc
# Outline: as §1
# [28] = target: Gal3S(b1-3)GlcNAc
# Outline: as §1
# [29] = target: Gal3S(b1-3)[Fuc(a1-4)]GlcNAc
# Outline: as §1
# [30] = target: Gal3S(b1-4)Glc
# Outline: as §1
# [31] = target: Gal3S(b1-4)Glc6S
# Outline: as §1
# [32] = target: Gal3S(b1-4)GlcNAc
# Outline: as §1
# [33] = target: Gal3S(b1-4)[Fuc(a1-3)]Glc6S
# Outline: as §1
# [34] = target: Gal3S(b1-4)[Fuc(a1-3)]GlcNAc
# Outline: as §1
# [35] = target: Gal3S(b1-4)[Fuc(a1-3)]GlcNAc6S
# Outline: as §1
# [36] = target: Gal3S4S(b1-4)GlcNAc
# Outline: as §1
# [37] = target: Gal3S6S(b1-4)GlcNAc
# Outline: as §1
binder,measurement,setting,value
Epf (Streptococcus pyogenes) (protein) GDHGPEFNGVMVVKAAEAEELPDDLMNFKGTWEVSADGSSGRFFSKGATDSYVFHLIPAKDVKKPGWREHNEVKDSYIKIDKQSIAARYKTSTTAPYSVAFKVNTKSLIKDHDYKITFEQGQIASGITVDYRIGSAFNKTTDDSFKISDESKYASNVKIEGEEQGFKQREQGDKTISFRTLKEGPMSLVLLSKVEKKPQGDLDVEFKNLKIIDVTNPSQLDKGVAYVGNKNVQLTLKSDDGRTNFEGDEISLFNSRGELLQTVTVTKDQQNPISITLSEDQAKSLKNKEKLKVSIKQKQSKKTSKDFFFEVGIDPKVEAKQKEKLLELDKVKKQIEDSINGDAWLPEKPVDLQGDHGLSAWSHPQFEK,glycan array binding signal (z-score),[1],0.225
same,glycan array binding signal (z-score),[2],-0.96
same,glycan array binding signal (z-score),[3],0.344
same,glycan array binding signal (z-score),[4],0.144
same,glycan array binding signal (z-score),[5],0.709
same,glycan array binding signal (z-score),[6],0.092
same,glycan array binding signal (z-score),[7],-0.057
same,glycan array binding signal (z-score),[8],0.695
same,glycan array binding signal (z-score),[9],2.53
same,glycan array binding signal (z-score),[10],-1.58
same,glycan array binding signal (z-score),[11],0.896
same,glycan array binding signal (z-score),[12],0.993
same,glycan array binding signal (z-score),[13],-0.499
same,glycan array binding signal (z-score),[14],-0.955
same,glycan array binding signal (z-score),[15],-0.469
same,glycan array binding signal (z-score),[16],-1.31
same,glycan array binding signal (z-score),[17],-0.121
same,glycan array binding signal (z-score),[18],1.19
same,glycan array binding signal (z-score),[19],1.22
same,glycan array binding signal (z-score),[20],0.341
same,glycan array binding signal (z-score),[21],-0.547
same,glycan array binding signal (z-score),[22],-0.413
same,glycan array binding signal (z-score),[23],0.279
same,glycan array binding signal (z-score),[24],-0.178
same,glycan array binding signal (z-score),[25],0.789
same,glycan array binding signal (z-score),[26],1.65
same,glycan array binding signal (z-score),[27],-0.626
same,glycan array binding signal (z-score),[28],0.473
same,glycan array binding signal (z-score),[29],-0.804
same,glycan array binding signal (z-score),[30],1.73
same,glycan array binding signal (z-score),[31],-0.159
same,glycan array binding signal (z-score),[32],1.35
same,glycan array binding signal (z-score),[33],1.89
same,glycan array binding signal (z-score),[34],1
same,glycan array binding signal (z-score),[35],-0.754
same,glycan array binding signal (z-score),[36],-0.712
same,glycan array binding signal (z-score),[37],-1.46

# Random excerpt: 2 entries already listed
binder,measurement,setting,value
Epf (Streptococcus pyogenes) (protein) GDHGPEFNGVMVVKAAEAEELPDDLMNFKGTWEVSADGSSGRFFSKGATDSYVFHLIPAKDVKKPGWREHNEVKDSYIKIDKQSIAARYKTSTTAPYSVAFKVNTKSLIKDHDYKITFEQGQIASGITVDYRIGSAFNKTTDDSFKISDESKYASNVKIEGEEQGFKQREQGDKTISFRTLKEGPMSLVLLSKVEKKPQGDLDVEFKNLKIIDVTNPSQLDKGVAYVGNKNVQLTLKSDDGRTNFEGDEISLFNSRGELLQTVTVTKDQQNPISITLSEDQAKSLKNKEKLKVSIKQKQSKKTSKDFFFEVGIDPKVEAKQKEKLLELDKVKKQIEDSINGDAWLPEKPVDLQGDHGLSAWSHPQFEK,glycan array binding signal (z-score),[30],1.73
same,glycan array binding signal (z-score),[13],-0.499
